The results in this text go back to PMC4150762, “The DEAD-box helicase Ded1 from yeast is an mRNP cap-associated protein that shuttles between the cytoplasm and nucleus” (Nucleic Acids Research, 2014).

Sequences of proteins named here, by UniProt entry; tags and fusion partners are left off.
UniProt P06634: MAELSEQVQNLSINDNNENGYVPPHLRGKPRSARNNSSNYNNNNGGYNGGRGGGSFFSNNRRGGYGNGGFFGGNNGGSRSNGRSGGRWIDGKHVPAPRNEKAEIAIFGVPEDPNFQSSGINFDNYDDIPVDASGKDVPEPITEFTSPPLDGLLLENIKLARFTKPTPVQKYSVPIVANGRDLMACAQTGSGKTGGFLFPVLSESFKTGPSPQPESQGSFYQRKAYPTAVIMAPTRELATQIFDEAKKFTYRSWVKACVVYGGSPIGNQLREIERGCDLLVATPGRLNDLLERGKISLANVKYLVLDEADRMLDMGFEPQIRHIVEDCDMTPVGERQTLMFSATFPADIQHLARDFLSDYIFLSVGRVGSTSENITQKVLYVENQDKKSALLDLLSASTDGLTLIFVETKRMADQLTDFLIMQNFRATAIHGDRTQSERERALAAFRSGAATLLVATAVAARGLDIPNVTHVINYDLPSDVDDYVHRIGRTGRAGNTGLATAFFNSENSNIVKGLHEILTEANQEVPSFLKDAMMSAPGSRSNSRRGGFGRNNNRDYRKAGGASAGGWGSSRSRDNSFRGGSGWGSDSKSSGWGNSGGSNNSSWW
UniProt P04147: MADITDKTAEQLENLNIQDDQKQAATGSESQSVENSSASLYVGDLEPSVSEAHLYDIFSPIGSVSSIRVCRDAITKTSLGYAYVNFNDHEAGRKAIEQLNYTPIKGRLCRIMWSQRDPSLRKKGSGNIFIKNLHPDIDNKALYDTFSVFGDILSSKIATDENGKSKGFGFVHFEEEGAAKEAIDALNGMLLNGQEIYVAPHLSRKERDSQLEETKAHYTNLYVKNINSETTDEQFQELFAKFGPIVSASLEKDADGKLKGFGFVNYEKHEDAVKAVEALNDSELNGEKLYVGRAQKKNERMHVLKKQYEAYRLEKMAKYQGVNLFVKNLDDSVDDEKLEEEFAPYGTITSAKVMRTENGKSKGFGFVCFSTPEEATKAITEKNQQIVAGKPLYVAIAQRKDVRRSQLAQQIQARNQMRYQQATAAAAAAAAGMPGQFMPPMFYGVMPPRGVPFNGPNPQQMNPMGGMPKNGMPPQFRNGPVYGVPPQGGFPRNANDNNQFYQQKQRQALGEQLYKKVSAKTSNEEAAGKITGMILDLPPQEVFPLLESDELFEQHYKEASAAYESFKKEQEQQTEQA

The target in experiment [1] is T1, eIF4E with an amino-terminal His6 tag (S. cerevisiae) (UniProt P07260).
T1 sequence: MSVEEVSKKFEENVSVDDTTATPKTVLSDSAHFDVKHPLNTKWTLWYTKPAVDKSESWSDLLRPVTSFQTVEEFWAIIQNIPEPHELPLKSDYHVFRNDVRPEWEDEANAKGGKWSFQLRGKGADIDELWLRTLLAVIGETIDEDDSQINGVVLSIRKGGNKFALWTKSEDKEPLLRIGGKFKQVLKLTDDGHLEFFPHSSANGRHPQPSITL
Briefly: pull-down; 7-methyl-GTP Sepharose beads loaded with 5 μg purified eIF4E or Cbp20, 5 μg of the purified proteins added with 50 U RNase I, 90 min on ice, TpB buffer (20 mM HEPES pH 7.9, 100 mM KCl, 2 mM MgCl2, 2 mM DTT), eluted with 1 mM 7-methyl-GTP; Coomassie-stained SDS PAGE; both purified.

Experiment [2] has as its target Ded1 (S. cerevisiae (endogenous in BY4742)) (UniProt P06634). Briefly: co-IP; Ded1-IgG crosslinked to protein A-Sepharose beads incubated with yeast extracts 1–2 h at 4°C, generally with 1 μg/ml RNase A; washed with PBS, eluted with glycine pH 2.5; western blot; pre-immune serum as control. On the technique in general: In western blotting, separated proteins are transferred to a membrane and probed.

The target of experiment [3] is T2, MalE-Cbp80 (S. cerevisiae) (UniProt P34160).
T2 sequence: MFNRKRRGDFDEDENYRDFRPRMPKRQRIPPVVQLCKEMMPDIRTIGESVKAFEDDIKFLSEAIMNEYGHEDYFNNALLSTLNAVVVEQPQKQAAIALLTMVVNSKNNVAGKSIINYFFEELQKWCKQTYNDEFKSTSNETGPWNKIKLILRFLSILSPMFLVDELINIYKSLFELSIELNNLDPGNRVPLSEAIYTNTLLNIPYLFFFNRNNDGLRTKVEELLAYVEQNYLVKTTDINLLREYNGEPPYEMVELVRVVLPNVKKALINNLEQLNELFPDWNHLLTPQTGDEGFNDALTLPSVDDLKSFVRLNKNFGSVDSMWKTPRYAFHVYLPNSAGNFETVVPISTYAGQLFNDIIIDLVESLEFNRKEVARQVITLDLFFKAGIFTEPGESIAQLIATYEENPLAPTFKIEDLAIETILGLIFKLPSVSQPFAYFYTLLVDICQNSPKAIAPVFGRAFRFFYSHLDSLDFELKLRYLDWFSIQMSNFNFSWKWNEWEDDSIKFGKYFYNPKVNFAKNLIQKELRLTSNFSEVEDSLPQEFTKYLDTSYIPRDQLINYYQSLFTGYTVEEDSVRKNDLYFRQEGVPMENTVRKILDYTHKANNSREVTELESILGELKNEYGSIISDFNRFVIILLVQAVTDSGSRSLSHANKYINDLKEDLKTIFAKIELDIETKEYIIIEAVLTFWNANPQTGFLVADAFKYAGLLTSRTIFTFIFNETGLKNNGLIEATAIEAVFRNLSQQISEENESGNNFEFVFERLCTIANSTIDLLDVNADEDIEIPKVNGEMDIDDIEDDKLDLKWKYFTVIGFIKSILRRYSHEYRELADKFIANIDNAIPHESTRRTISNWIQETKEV
Briefly: pull-down; MalE-Cbp80 bound to amylose resin, incubated with purified proteins, eluted with 10 mM maltose; western blot with IgG against Ded1, Cbp80 and the His6 tag of Cbp20; both purified.

In experiment [4] the target is Ded1 (S. cerevisiae (endogenous in BY4742)), P06634. Briefly: co-IP; Ded1-IgG crosslinked to protein A-Sepharose beads incubated with yeast extracts 1–2 h at 4°C, generally with 1 μg/ml RNase A; washed with PBS, eluted with glycine pH 2.5; western blot; pre-immune serum as control. The settings on record: remark: other sources report otherwise.

Results are given in words; binding and its absence hold for the method and conditions named. For part of these data: Binding seen in cells or lysates may run through a third protein. Some entries that bind do so weakly or less than the wild type. For part of these data: Tags and fused reporters may be left off the sequences shown.

In the case of “Ded1-His6 (from UniProt P06634 1-604) (enzyme; other documents disagree on this pair)”, the binding entry in experiment [1] is reported as “binds”. Consider Pab1 (from UniProt P04147 1-577), for which the binding entry in experiment [2] is “binds”.

B1: eIF4G1 (protein, UniProt P39935 1-952)
chain: MTDETAHPTQSASKQESAALKQTGDDQQESQQQRGYTNYNNGSNYTQKKPYNSNRPHQQRGGKFGPNRYNNRGNYNGGGSFRGGHMGANSSNVPWTGYYNNYPVYYQPQQMAAAGSAPANPIPVEEKSPVPTKIEITTKSGEHLDLKEQHKAKLQSQERSTVSPQPESKLKETSDSTSTSTPTPTPSTNDSKASSEENISEAEKTRRNFIEQVKLRKAALEKKRKEQLEGSSGNNNIPMKTTPENVEEKGSDKPEVTEKTKPAEEKSAEPEVKQETPAEEGEQGEKGQIKEESTPKVLTFAERLKLKKQQKEREEKTEGKENKEVPVQEETKSAIESAPVPPSEQVKEETEVAETEQSNIDESATTPAIPTKSDEAEAEVEAEAGDAGTKIGLEAEIETTTDETDDGTNTVSHILNVLKDATPIEDVFSFNYPEGIEGPDIKYKKEHVKYTYGPTFLLQFKDKLNVKADAEWVQSTASKIVIPPGMGRGNRSRDSGRFGNNSSRGHDFRNTSVRNMDDRANSRTSSKRRSKRMNDDRRSNRSYTSRRDRERGSYRNEEKREDDKPKEEVAPLVPSANRWVPKFKSKKTEKKLAPDGKTELLDKDEVERKMKSLLNKLTLEMFDAISSEILAIANISVWETNGETLKAVIEQIFLKACDEPHWSSMYAQLCGKVVKELNPDITDETNEGKTGPKLVLHYLVARCHAEFDKGWTDKLPTNEDGTPLEPEMMSEEYYAAASAKRRGLGLVRFIGFLYRLNLLTGKMMFECFRRLMKDLTDSPSEETLESVVELLNTVGEQFETDSFRTGQATLEGSQLLDSLFGILDNIIQTAKISSRIKFKLIDIKELRHDKNWNSDKKDNGPKTIQQIHEEEERQRQLKNNSRSNSRRTNNSSNRHSFRRDAPPASKDSFITTRTYSQRNSQRAPPPKEEPAAPTSTATNMFSALMGESDDEE
As for B1, the binding result in experiment [2] was “binds”.

B2: His6-Cbp20 (natural protein, S. cerevisiae, UniProt Q08920 1-208, looked up)
chain: MSLEEFDEVKYDHSTKRLDTPSRYLLRKARRNPNGLQELRESMKSSTIYVGNLSFYTSEEQIYELFSKCGTIKRIIMGLDRFKFTPCGFCFIIYSCPDEALNALKYLSDTKLDEKTITIDLDPGFEDGRQFGRGKSGGQVSDELRFDFDASRGGFAIPFAERVGVPHSRFDNSSSQSNTNNYIPPPDAMGTFRPGFDEEREDDNYVPQ
notes: Cbp20 of S. cerevisiae subcloned from pRSETC20 into the NdeI-BamHI sites of pET19b; Printed name His6-Cbp20; also called Cpb20; source: E. coli (pET19b), purified on nickel-agarose
As for B2, the binding entry in experiment [3] is “binds”.

B3: Cbp20 with an amino-terminal HA tag (protein, UniProt Q08920 1-208)
chain: B2 chain
Regarding B3, the binding result in experiment [2] is on record as “binds”.

B4: Cbp80 (protein, UniProt P34160 1-861)
chain: T2 sequence
Consider B4, for which the binding entry in experiment [2] is recorded as “binds”.

B5: eIF4G2 (protein, UniProt P39936 1-914)
chain: MTDQRGPPPPHPQQANGYKKFPPHDNQYSGANNSQPNNHYNENLYSAREPHNNKQYQSKNGKYGTNKYNNRNNSQGNAQYYNNRFNNGYRLNNNDYNPAMLPGMQWPANYYAPQMYYIPQQMVPVASPPYTHQPLNTNPEPPSTPKTTKIEITTKTGERLNLKKFHEEKKASKGEEKNDGVEQKSKSGTPFEKEATPVLPANEAVKDTLTETSNEKSTSEAENTKRLFLEQVRLRKAAMERKKNGLISETEKKQETSNHDNTDTTKPNSVIESEPIKEAPKPTGEANEVVIDGKSGASVKTPQHVTGSVTKSVTFNEPENESSSQDVDELVKDDDTTEISDTTGGKTVNKSDDETINSVITTEENTVKETEPSTSDIEMPTVSQLLETLGKAQPISDIYEFAYPENVERPDIKYKKPSVKYTYGPTFLLQFKDKLKFRPDPAWVEAVSSKIVIPPHIARNKPKDSGRFGGDFRSPSMRGMDHTSSSRVSSKRRSKRMGDDRRSNRGYTSRKDREKAAEKAEEQAPKEEIAPLVPSANRWIPKSRVKKTEKKLAPDGKTELFDKEEVERKMKSLLNKLTLEMFDSISSEILDIANQSKWEDDGETLKIVIEQIFHKACDEPHWSSMYAQLCGKVVKDLDPNIKDKENEGKNGPKLVLHYLVARCHEEFEKGWADKLPAGEDGNPLEPEMMSDEYYIAAAAKRRGLGLVRFIGYLYCLNLLTGKMMFECFRRLMKDLNNDPSEETLESVIELLNTVGEQFEHDKFVTPQATLEGSVLLDNLFMLLQHIIDGGTISNRIKFKLIDVKELREIKHWNSAKKDAGPKTIQQIHQEEEQLRQKKNSQRSNSRFNNHNQSNSNRYSSNRRNMQNTQRDSFASTKTGSFRNNQRNARKVEEVSQAPRANMFDALMNNDGDSD
Turning to B5, in experiment [2], the binding entry is reported as “binds weakly”.

B6: GST-NAB2-HIS6 (natural protein, S. cerevisiae, UniProt P32505 1-525, looked up)
chain: MSQEQYTENLKVIVAEKLAGIPNFNEDIKYVAEYIVLLIVNGGTVESVVDELASLFDSVSRDTLANVVQTAFFALEALQQGESAENIVSKIRMMNAQSLGQSDIAQQQQQQQQQQQPDIAQQQPQQQPQQQPQQQPQQQPQQQPQQQPQQQPQQQPQLQPLQPQLGTQNAMQTDAPATPSPISAFSGVVNAAAPPQFAPVDNSQRFTQRGGGAVGKNRRGGRGGNRGGRNNNSTRFNPLAKALGMAGESNMNFTPTKKEGRCRLFPHCPLGRSCPHAHPTKVCNEYPNCPKPPGTCEFLHPNEDEELMKEMERTREEFQKRKADLLAAKRKPVQTGIVLCKFGALCSNPSCPFGHPTPANEDAKVIDLMWCDKNLTCDNPECRKAHSSLSKIKEVKPISQKKAAPPPVEKSLEQCKFGTHCTNKRCKYRHARSHIMCREGANCTRIDCLFGHPINEDCRFGVNCKNIYCLFRHPPGRVLPEKKGAAPNSNVPTNERPFALPENAIIENAPPQTSFTHQEQDTEMN
In the case of B6, in experiment [2], the binding entry is given as “binds”.

B7: eIF4E, P07260 1-213 (protein)
chain: T1 sequence
For the molecule B7, the binding result in experiment [4] is given as “binds”.
